# Reference: publication PMC5998130
# Results are given in words; binding and its absence hold for the method and conditions named. Binding seen in cells or lysates may run through a third protein. Some entries that bind do so weakly or less than the wild type.
# B1: FOXK1, P85037 1-733 (protein)
# chain: MAEVGEDSGARALLALRSAPCSPVLCAAAAAAAFPAAAPPPAPAQPQPPPGPPPPPPPPLPPGAIAGAGSSGGSSGVSGDSAVAGAAPALVAAAAASVRQSPGPALARLEGREFEFLMRQPSVTIGRNSSQGSVDLSMGLSSFISRRHLQLSFQEPHFYLRCLGKNGVFVDGAFQRRGAPALQLPKQCTFRFPSTAIKIQFTSLYHKEEAPASPLRPLYPQISPLKIHIPEPDLRSMVSPVPSPTGTISVPNSCPASPRGAGSSSYRFVQNVTSDLQLAAEFAAKAASEQQADTSGGDSPKDESKPPFSYAQLIVQAISSAQDRQLTLSGIYAHITKHYPYYRTADKGWQNSIRHNLSLNRYFIKVPRSQEEPGKGSFWRIDPASEAKLVEQAFRKRRQRGVSCFRTPFGPLSSRSAPASPTHPGLMSPRSGGLQTPECLSREGSPIPHDPEFGSKLASVPEYRYSQSAPGSPVSAQPVIMAVPPRPSSLVAKPVAYMPASIVTSQQPAGHAIHVVQQAPTVTMVRVVTTSANSANGYILTSQGAAGGSHDAAGAAVLDLGSEARGLEEKPTIAFATIPAAGGVIQTVASQMAPGVPGHTVTILQPATPVTLGQHHLPVRAVTQNGKHAVPTNSLAGNAYALTSPLQLLATQASSSAPVVVTRVCEVGPKEPAAAVAATATTTPATATTASASASSTGEPEVKRSRVEEPSGAVTTPAGVIAAAGPQGPGTGE
# Molecular target: Estrogen Receptor alpha (ERα) (human (endogenous in MCF7, human PDX tumours and human breast tumours)), P03372
# Assay: proximity ligation; PLA in methanol-fixed MCF7 cells with primary antibodies against ERα and the partner; untreated cells, and cells treated with vehicle or 100 nM OHT (2 h, 6 h)
# Conditions: remark: other sources report otherwise
binder,measurement,value
B1,binding,binds
